Reference: paper PMC12586603
These are yes or no findings as the source states them, for the method shown. For some of these results: In cells and extracts the contact can be indirect. Some binding calls cover weakened binding; strength is not graded here.

The chains behind the UniProt entries cited, without tags or fusion partners.
UniProt Q8N163: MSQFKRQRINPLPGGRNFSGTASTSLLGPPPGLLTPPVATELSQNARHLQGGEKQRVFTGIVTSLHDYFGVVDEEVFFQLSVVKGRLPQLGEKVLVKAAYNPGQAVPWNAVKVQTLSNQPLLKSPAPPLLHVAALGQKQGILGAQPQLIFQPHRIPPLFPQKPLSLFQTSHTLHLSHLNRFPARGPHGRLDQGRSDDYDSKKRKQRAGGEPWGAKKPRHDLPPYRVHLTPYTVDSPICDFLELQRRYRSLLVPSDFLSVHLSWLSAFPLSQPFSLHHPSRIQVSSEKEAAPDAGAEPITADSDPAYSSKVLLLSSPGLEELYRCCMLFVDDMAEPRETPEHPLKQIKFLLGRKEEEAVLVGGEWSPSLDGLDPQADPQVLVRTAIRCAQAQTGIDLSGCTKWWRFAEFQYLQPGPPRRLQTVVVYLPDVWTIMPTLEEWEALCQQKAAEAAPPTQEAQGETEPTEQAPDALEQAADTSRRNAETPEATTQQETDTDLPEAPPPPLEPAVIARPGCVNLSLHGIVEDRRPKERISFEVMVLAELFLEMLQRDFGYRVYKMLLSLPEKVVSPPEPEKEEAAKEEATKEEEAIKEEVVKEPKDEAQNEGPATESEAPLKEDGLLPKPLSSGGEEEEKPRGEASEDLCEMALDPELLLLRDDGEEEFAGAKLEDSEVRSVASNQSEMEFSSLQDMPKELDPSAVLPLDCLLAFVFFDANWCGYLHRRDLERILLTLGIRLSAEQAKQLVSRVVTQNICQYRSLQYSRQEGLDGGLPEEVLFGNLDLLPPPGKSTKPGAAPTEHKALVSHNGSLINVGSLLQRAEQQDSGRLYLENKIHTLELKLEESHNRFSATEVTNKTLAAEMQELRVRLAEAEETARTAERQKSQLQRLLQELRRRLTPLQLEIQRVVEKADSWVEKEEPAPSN
UniProt Q00613: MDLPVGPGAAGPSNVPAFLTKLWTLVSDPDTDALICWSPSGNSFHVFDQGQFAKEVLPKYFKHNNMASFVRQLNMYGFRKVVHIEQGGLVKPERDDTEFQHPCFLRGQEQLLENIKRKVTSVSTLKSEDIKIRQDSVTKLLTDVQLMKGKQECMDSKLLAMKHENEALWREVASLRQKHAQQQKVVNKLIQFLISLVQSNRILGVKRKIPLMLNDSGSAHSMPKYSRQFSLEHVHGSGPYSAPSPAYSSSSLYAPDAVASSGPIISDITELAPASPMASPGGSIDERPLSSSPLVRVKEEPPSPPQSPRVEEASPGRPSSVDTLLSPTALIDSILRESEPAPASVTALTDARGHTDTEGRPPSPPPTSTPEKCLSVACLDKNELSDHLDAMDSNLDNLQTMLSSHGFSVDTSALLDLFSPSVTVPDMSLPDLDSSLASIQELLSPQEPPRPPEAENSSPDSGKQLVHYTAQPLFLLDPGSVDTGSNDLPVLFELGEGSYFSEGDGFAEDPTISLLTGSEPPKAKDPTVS
UniProt Q9UNE7: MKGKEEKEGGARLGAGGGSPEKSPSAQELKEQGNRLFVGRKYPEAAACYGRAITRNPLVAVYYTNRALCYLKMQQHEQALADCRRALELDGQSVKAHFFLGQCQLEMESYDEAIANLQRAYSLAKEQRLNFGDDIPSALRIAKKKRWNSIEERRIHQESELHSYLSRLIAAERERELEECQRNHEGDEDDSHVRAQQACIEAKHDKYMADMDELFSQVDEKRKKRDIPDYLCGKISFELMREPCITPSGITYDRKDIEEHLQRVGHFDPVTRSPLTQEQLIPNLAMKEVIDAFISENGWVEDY

How the values were obtained:
GST-DBC1 = GST-DBC1 (UniProt Q8N163); test: pull-down; GST-DBC1 as bait; FLAG-HSF1 purified from 293T cells (with or without HS), untreated or treated with λ-phosphatase; immunoblot; both purified
[1] = target: Heat shock factor 1 (HSF1), endogenous (human (endogenous in 22RV1 and SM1)) (UniProt Q00613); test: co-IP; SM1 cells transfected with expression vectors (CHIP, with or without DBC1); lysates immunoprecipitated with anti-HSF1 antibodies, immunoblot
3xFLAG-HSF1 = 3xFLAG-HSF1 (UniProt Q00613); test: co-IP; 293T cells transfected with expression constructs; lysates immunoprecipitated with FLAG-M2 agarose beads (FLAG-HSF1 immunoprecipitates), immunoblot; with or without coexpressed DYRK2 or DBC1

Substance | binding (GST-DBC1) | further results
3xFLAG-HSF1 (from UniProt Q00613 1-529) | binds | 
CHIP-V5 (from UniProt Q9UNE7 1-303) (enzyme) |  | binding [1]: binds
FLAG-HSF1 treated with λ-phosphatase (from UniProt Q00613 1-529) | binds weakly | 
HSP90β E42A (client-trapping mutant of HSP90β) (from UniProt P08238 1-724) |  | binding (3xFLAG-HSF1): binds
